Where “and” joins values, the source holds several entries; their conditions need not be identical. Equal values may be shown once. The list shows a part of the results. The main result of the screen is listed elsewhere. These columns were measured beside it and carry no call. The list favours compounds with an active or inconclusive main result. The note in brackets gives the kind of curve behind each potency; many fits are weak.
Assay: qHTS Assay for Lipid Storage Modulators in Drosophila S3 Cells;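 as to cell number change: cells counted by Cell Tracker Red CMTPX staining in the red channel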
Conditions: BODIPY lipid droplet fluorescence, 18-24 h; for cell number change: measured here: cell count max response, cells fed with added oleic acid
Method in brief: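 Drosophila S3 cells got compounds at several concentrations plus oleic acid (400 uM solution). Laser-scanning cytometry with 488 nm excitation read lipid droplets at 500-530 nm and cells at 575-640 nm. Percent activity was relative to 20 uM Triacsin C.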

[1] = measured here: cell number channel AC50, cells fed with added oleic acid
[2] = measured here: lipid fluorescence (Fed channel) AC50, cells fed with added oleic acid

SMILES | cell number change | AC50 [1] | AC50 [2]
O=C(N/N=C/c1ccccn1)c1cc(-c2ccc3ccccc3c2)n[nH]1 | -69.2% | 11.6 µM [falling, partial curve] | 11.6 µM [falling, partial curve]
CCN(CC(=O)Nc1ccc2c(c1)OCCO2)C(=O)c1ccc(Cl)cc1Cl | 44% | 23.1 µM [rising, single point] | 20.6 µM [rising, single point]
CCOC(=O)CCNCc1ccc(F)cc1 | -13% |  | 29.1 µM [falling, single point]
CC(c1ccon1)N(C)C(=O)CCc1nnc(Cc2ccc(-c3ccccc3)cc2)o1 (centres undefined) |  |  | 0.058 µM [rising, full curve, poor fit]
N#C/C(=C/C=C/c1ccccc1)C(=O)Nc1ccccc1 | -6.54% |  | 
O=C(c1ccc(Oc2ccc([N+](=O)[O-])cc2Cl)cc1)N1CCCC1 |  | 0.92 µM [rising, single point] | 1.16 µM [rising, single point]
Cn1cc(CNC(=O)C2CCCCC2)cn1 | -11.7% | 6.51 µM [falling, single point] | 6.51 µM [falling, single point]
O=c1c2ccccc2c(=O)n2n1Cc1ccccc1C2 | -3.67% |  | 6.51 µM [rising, single point]
Cc1ccsc1/C=N/NC(=O)Cc1ccc(Cl)cc1 | 1.36% |  | 9.2 µM [rising, single point]
CCOc1ccc(Br)cc1C(=O)Nc1ccc(C(=O)NCC(C)C)cc1 | -57.1% | 13 µM [falling, partial curve] | 20.6 µM [falling, single point]
CC(=O)c1ccc2c(c1)c(C#N)c1ccccc1[n+]2[O-] | 16.7% |  | 
CCOC(=O)Nc1nc(-c2ccccc2)c(C(=O)c2ccccc2)s1 | 84.1% | 23.1 µM [rising, single point] | 29.1 µM [rising, single point]
CCCCCCCCCCOC(=O)Cn1c(COc2ccc(OC)cc2)[n+](C)c2ccccc21 | -8.52% and 11.7% | 5.17 µM [falling, partial curve, poor fit] | 3.26 µM [falling, partial curve, poor fit]
CC(=O)Nc1ccc2c(c1)nc(CCN1CCC(C)CC1)n2C | -38.2% | 14.6 µM [falling, single point] | 23.1 µM [falling, partial curve]
CCOC(=O)N1CCN(C(=O)CN(c2ccc(Oc3ccccc3)cc2)S(C)(=O)=O)CC1 | -7.73% |  | 0.651 µM [rising, single point]

Some of the entries above in a different format.

| SMILES | cell number change | AC50 [1] | AC50 [2] |
| --- | --- | --- | --- |
| O=c1c2ccccc2c(=O)n2n1Cc1ccccc1C2 | -3.67% |  | 6.51 µM [rising, single point] |
| Cc1ccsc1/C=N/NC(=O)Cc1ccc(Cl)cc1 | 1.36% |  | 9.2 µM [rising, single point] |
